No constants are given. Whether binding was seen depends on the method and setting. Binding seen in cells or lysates may run through a third protein. Some entries that bind do so weakly or less than the wild type. For some assays here: Tags and fused reporters may be left off the sequences shown.
Experiments:
[1] = target: EGFP-tagged GABARAP (overexpressed in HEK293T cells) (UniProt O95166); assay: Co-IP with anti-FLAG, overexpressed in HEK293T cells, blot with anti-GFP
[2] = target: VAMP3 (endogenous, in HEK293T cells) (UniProt Q15836); assay: Co-IP of FLAG-tagged Stx6 with endogenous VAMP3, HEK293T cells, full or starved (EBSS 1 h)
VPS41 (endogenous) = target: T1, VPS41 (endogenous) (UniProt P49754); assay: Co-IP with anti-FLAG, HEK293T cells, endogenous VPS41
T1 sequence (looked up): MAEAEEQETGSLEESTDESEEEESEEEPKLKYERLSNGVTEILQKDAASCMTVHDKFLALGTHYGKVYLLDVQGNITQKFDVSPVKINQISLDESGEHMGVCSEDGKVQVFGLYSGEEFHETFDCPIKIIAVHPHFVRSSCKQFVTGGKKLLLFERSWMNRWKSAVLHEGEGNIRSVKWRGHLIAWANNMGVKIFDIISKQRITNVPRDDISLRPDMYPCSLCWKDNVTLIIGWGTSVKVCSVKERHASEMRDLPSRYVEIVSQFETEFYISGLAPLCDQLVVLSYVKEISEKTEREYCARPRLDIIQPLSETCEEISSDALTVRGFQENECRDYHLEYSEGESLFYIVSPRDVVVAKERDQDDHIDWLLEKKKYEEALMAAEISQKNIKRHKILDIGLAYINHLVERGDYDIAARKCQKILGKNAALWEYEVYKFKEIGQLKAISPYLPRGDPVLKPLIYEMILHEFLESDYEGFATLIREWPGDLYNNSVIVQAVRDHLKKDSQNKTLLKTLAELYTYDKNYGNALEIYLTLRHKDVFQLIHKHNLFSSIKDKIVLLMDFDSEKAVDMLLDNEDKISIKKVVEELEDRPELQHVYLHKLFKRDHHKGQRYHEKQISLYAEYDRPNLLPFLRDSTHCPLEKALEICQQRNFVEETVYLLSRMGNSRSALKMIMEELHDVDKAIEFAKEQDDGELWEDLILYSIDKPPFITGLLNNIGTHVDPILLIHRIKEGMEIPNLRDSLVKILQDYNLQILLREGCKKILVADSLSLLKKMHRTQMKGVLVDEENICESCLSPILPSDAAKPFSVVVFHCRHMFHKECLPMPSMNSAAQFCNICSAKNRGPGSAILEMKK

Amino acid sequences for entries named in this document (tags omitted). Residues count along the entry.
UniProt O95166, residues 1-116: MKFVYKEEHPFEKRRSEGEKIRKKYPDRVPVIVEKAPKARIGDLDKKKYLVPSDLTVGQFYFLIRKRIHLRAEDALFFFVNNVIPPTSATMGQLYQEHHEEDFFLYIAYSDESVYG
UniProt Q15836, residues 2-100: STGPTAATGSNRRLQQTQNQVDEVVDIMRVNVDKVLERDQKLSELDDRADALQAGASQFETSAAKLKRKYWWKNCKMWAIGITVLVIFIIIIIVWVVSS

[3] = target: T2, Vti1a (endogenous, in HeLa and U2OS cells) (UniProt Q96AJ9); assay: endogenous Co-IP with mouse anti-Stx6 antibody, HeLa cells
T2 sequence (looked up): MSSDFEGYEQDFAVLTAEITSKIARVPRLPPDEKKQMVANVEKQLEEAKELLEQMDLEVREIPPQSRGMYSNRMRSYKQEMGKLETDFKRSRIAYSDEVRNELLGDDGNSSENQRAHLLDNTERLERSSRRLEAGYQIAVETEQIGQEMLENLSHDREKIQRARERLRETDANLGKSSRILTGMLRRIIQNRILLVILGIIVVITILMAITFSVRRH

[4] = target: T2, Vti1a (endogenous, in HeLa and U2OS cells); assay: endogenous Co-IP with mouse anti-Stx6 antibody, WT and knockout HeLa cells

B1: Vti1a (endogenous, in HeLa and U2OS cells) (other, UniProt Q96AJ9 1-217, looked up)
chain: T2 sequence (looked up)
binding [1]: binds

B2: FLAG-tagged Stx6 (overexpressed in HEK293T cells) (protein, UniProt O43752 1-255, looked up, not shown: small tags and cut ends)
chain: MSMEDPFFVVKGEVQKAVNTAQGLFQRWTELLQDPSTATREEIDWTTNELRNNLRSIEWDLEDLDETISIVEANPRKFNLDATELSIRKAFITSTRQVVRDMKDQMSTSSVQALAERKNRQALLGDSGSQNWSTGTTDKYGRLDRELQRANSHFIEEQQAQQQLIVEQQDEQLELVSGSIGVLKNMSQRIGGELEEQAVMLEDFSHELESTQSRLDNVMKKLAKVSHMTSDRRQWCAIAILFAVLLVVLILFLVL
binding [2]: binds
binding (VPS41 (endogenous)): binds

B3: VPS41 (endogenous) (protein, UniProt P49754 1-854, looked up)
chain: T1 sequence (looked up)
binding [3]: binds

B4: Stx6 (endogenous, precipitated with mouse anti-Stx6 antibody from HeLa cells) (other, UniProt O43752 2-255, looked up)
chain: SMEDPFFVVKGEVQKAVNTAQGLFQRWTELLQDPSTATREEIDWTTNELRNNLRSIEWDLEDLDETISIVEANPRKFNLDATELSIRKAFITSTRQVVRDMKDQMSTSSVQALAERKNRQALLGDSGSQNWSTGTTDKYGRLDRELQRANSHFIEEQQAQQQLIVEQQDEQLELVSGSIGVLKNMSQRIGGELEEQAVMLEDFSHELESTQSRLDNVMKKLAKVSHMTSDRRQWCAIAILFAVLLVVLILFLVL
notes: also called syntaxin 6
binding [4]: binds
